The supplement of paper PMC8256030
Counter-ions that a name gives are not always drawn. The list shows a part of the results. Repeats in this data set agree poorly, so a single value says little.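 HEK293T cells were given each compound shortly before transfection with a reporter in which red mCherry is followed by the SARS-CoV-2 frameshift element and then GFP in the −1 frame, so GFP appears only after frameshifting.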

Legend:
[1] = test system: SARS-CoV-2 -1 PRF reporter mCherry-FSE-GFP(-1); test: mCherry (red) intensity as percent of control; higher = higher upstream reporter expression; settings: 10 µM; 24 h; HEK293T
[2] = test system: SARS-CoV-2 -1 PRF reporter mCherry-FSE-GFP(-1); test: percent effect, decrease of GFP/mCherry ratio (-1 PRF reporter) relative to controls; higher = stronger frameshift inhibition; settings: 10 µM; 24 h; HEK293T

| Compound | mCherry [1] [%] | percent effect [2] [%] |
| --- | --- | --- |
| CCC1C(=O)NC(=O)C1(C)c1ccccc1 (configuration not stated) [fenimide] | 91.3 | -10.2 |
| Nc1nc(N)c2nc(-c3ccccc3)c(N)nc2n1 [triamterene] | 96.1 | -2.34 |
| O=P(O)(O)O[C@@H]1[C@H](OP(=O)(O)O)[C@H](O)[C@@H](O)[C@H](O)[C@H]1OP(=O)(O)O [atrinositol] | 47.8 | -61.7 |
| C/C=C(/C(=C/C)c1ccc(O)cc1)c1ccc(O)cc1 [dienestrol] | 113 | -7.83 |
| CCCOc1cc(N)ccc1C(=O)OCCN(CC)CC | 111 | -1.18 |
| Cc1ccc(C(C)C)c(O)c1 [Thymol] | 80.6 | -2.02 |
| CC1=NN(c2ccccc2)C(=O)C1 [edaravone] | 97.6 | 1.67 |
| CC(OCCN1CCCCCC1)(c1ccccc1)c1ccc(Cl)cc1 (configuration not stated) [setastine] | 120 | -0.895 |
| N=C(N)NCCN1CCCCCCC1 | 112 | -5.56 |
| CCN(Cc1ccncc1)C(=O)C(CO)c1ccccc1 (configuration not stated) | 95.6 | -3.41 |
| Cc1nnc(C(=O)NC(C)(C)c2nc(C(=O)NCc3ccc(F)cc3)c(O)c(=O)n2C)o1 [Raltegravir] | 90 | -7.55 |
| CC(C)(C)CC(C)(C)c1ccc(OCCO)cc1 [octoxinol] | 67.4 | -0.725 |
| Cc1ccc(O)c([C@H](CCN(C(C)C)C(C)C)c2ccccc2)c1 [tolterodine] | 102 | -2.31 |
| O=C(O)c1cc(/N=N/c2ccc(O)c(C(=O)O)c2)ccc1O | 117 | -6.09 |
| CN1CC(=O)N=C1NC(=O)Nc1cccc(Cl)c1 [fenobam] | 68.4 | -16.3 |
| CCC(C(=O)OCCN(CC)CC)c1ccccc1 (configuration not stated) [butetamate] | 108 | -1.86 |
| C=C1CCO[C@]2([C@@H](O)[C@@](C)(O)CO)NC(=O)[C@@]1(O)NC2=O [bicozamycin] | 93 | -1.06 |
| Cc1ccc(S(=O)(=O)NC(=O)NC2CCCCC2)cc1N [metahexamide] | 103 | -3.64 |

| Compound | mCherry [1] [%] | percent effect [2] [%] |
| --- | --- | --- |
| O=c1[nH]cnc2c([C@@H]3N[C@H](CO)[C@@H](O)[C@H]3O)c[nH]c12 [forodesine] | 102 | 1.02 |
| CC1=C(/C=C/C(C)=C/C=C/C(C)=C/CO)C(C)(C)CCC1 [retinol] | 82.2 | -4.58 |
| C[C@]12CCC(=O)C=C1CC[C@@H]1[C@@H]2[C@@H](O)C[C@]2(C=O)[C@@H](C(=O)CO)CC[C@@H]12 [aldosterone] | 84.6 | -5.85 |
| CC[C@@H](NC(C)C)[C@@H](O)c1ccc(O)c2[nH]c(=O)ccc12 [Procaterol·HCl] | 89.1 | -1.45 |
| CNC1CCCN(c2c(F)cc3c(=O)c(C(=O)O)cn(C4CC4)c3c2OC)C1 (configuration not stated) [balofloxacin] | 96.3 | -0.369 |
| O=C(O)C1CSCN1 (configuration not stated) [timonacic] | 114 | -2.71 |
| CNC(=N)NC(=O)Nc1c(C)cccc1C [lidamidine] | 112 | -4.68 |
| CC(C)OC(=O)C(C(=O)OC(C)C)=C1SC=CS1 [malotilate] | 104 | -1.84 |
| COc1cc(O)c(C(=O)c2ccccc2)cc1S(=O)(=O)O [sulisobenzone] | 127 | 7.73 |
| CCCCNC(=O)NS(=O)(=O)c1ccc(N)cc1 [carbutamide] | 80.1 | -13.6 |
| CC(=O)NS(=O)(=O)c1ccc(NC(=O)c2ccccc2C(=O)O)cc1 | 117 | 2.42 |
| O=C(NC[C@H]1CN(c2ccc(N3CCOCC3=O)cc2)C(=O)O1)c1ccc(Cl)s1 [Rivaroxaban] | 89.9 | -2.33 |
| COC(=O)c1ccc(=O)c2nc3c(=CO)c(O)cc(=O)c3[nH]c12 [Lomofungin] | 87 | 2.28 |
| CCCCC(CC)COC(=O)C(C#N)=C(c1ccccc1)c1ccccc1 (configuration not stated) [octocrilene] | 20.4 | -10.1 |
| Clc1ccc(C(c2ccccc2Cl)C(Cl)Cl)cc1 (configuration not stated) [mitotane] | 132 | 3.54 |
| CCC1=C[C@@H]2CN(C1)Cc1c([nH]c3ccccc13)[C@@](C(=O)OC)(c1cc3c(cc1OC)N(C)[C@H]1[C@@](O)(C(=O)OC)[C@H](OC(C)=O)[C@]4(CC)C=CCN5CC[C@]31[C@@H]54)C2 [vinorelbine] | 43.5 | -12.5 |
| CCN1CCC[C@H]1CNC(=O)c1cc(S(N)(=O)=O)ccc1OC [levosulpiride] | 102 | 2.56 |
| CC(C)[C@@H]1CC[C@@H](C)C[C@H]1O [levomenthol] | 102 | 1.28 |

Look-ups from the results shown:
COC(=O)c1ccc(=O)c2nc3c(=CO)c(O)cc(=O)c3[nH]c12 [Lomofungin] | percent effect [2] [%]: 2.28
CC(=O)NS(=O)(=O)c1ccc(NC(=O)c2ccccc2C(=O)O)cc1 | percent effect [2] [%]: 2.42
O=C(NC[C@H]1CN(c2ccc(N3CCOCC3=O)cc2)C(=O)O1)c1ccc(Cl)s1 [Rivaroxaban] | mCherry [1] [%]: 89.9
